Laboratory results as given in US9452217B2, “Methods for potentiating immune response for the treatment of infectious diseases and cancer” (Nitor Therapeutics, priority 2013, dated 2016).
Some results were stated once for a whole list of compounds, not compound by compound.

Test system: L. monocytogenes (ATCC Strain35152, hemolytic substrain)
Assay: Mouse model of L. monocytogenes infection
Conditions: Balb/c mice infected i.v. with 1×10^6 CFU; 30 mg/kg PO or IP, 2 mg/kg drinking water; FIGS. 8 and 10

Row | SMILES | protection of the animals (survival)
1 | O=c1[nH]cnc2c([C@@H]3N[C@H](CO)[C@@H](O)[C@H]3O)c[nH]c12 [NTR001, 7-[(2S,3S,4R,5R)-3,4-dihydroxy-5-(hydroxymethyl)-2-pyrrolidinyl]-1,5-dihydro-4H-pyrrolo [3,2-d]pyrimidin-4-one] | 10-20%
2 | O=c1[nH]cnc2c(CN3C[C@H](CO)[C@@H](O)C3)c[nH]c12 [NTR002, 1,5-dihydro-7-[[(3R,4R)-3-hydroxy-4-(hydroxymethyl)pyrrolidin-1-yl]methyl]-4H-pyrrolo [3,2-d]pyrimidin-4-one] | 10-20%
